# PubChem BioAssay AID1259254, NCATS | 2017
# Assay: 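Genome-wide screen for genes that prevent DNA re-replication in cancer cells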 (primary screen)
# Cell system: human HCT116 colorectal cancer cells
# Reagent: single siRNA against human genes
# Time to read-out: 3 days
# Measured: 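Nuclei stained with Hoechst and imaged; cell-cycle phase assigned by DNA content; G2 share scaled per plate, non-targeting siRNA 0%, GMNN siRNA 100%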
# Direction: G2 robust z-score and G2 cells, % of GMNN control: higher = more G2 cells, more excess DNA replication
# Hit rule: 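An siRNA counts as active if its G2 robust z-score lies at least 5 MADs above the screen median; here such calls match roughly 38% of GMNN control or more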
# In all, the deposit lists about 59,000 reagents; shown is a part drawn at random. About 1,550 of them (2.6%) count as active. 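G2 share is only a proxy for re-replication; each gene was hit by three separate siRNAs, and active genes were retested.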 Reagents against one gene are numbered here. Not all columns of the deposit are shown. Not stated in the record: the amount of reagent.
gene knocked down,siRNA no.,G2 robust z-score,"G2 cells, % of GMNN control",Call
PSMC3IP,1,-1.12,-4.9,inactive
PSMC3IP,2,3.06,24.5,inactive
PSMC3IP,3,-0.819,-2.79,inactive
KIAA1671,1,0.0795,3.53,inactive
KIAA1671,2,1.72,15.1,inactive
KIAA1671,3,-0.88,-3.23,inactive
KIAA1671,4,0.934,9.54,inactive
KIAA1671,5,-0.433,-0.0823,inactive
KIAA1671,6,-0.473,-0.361,inactive
EFNA5,1,0.682,7.77,inactive
EFNA5,2,-0.565,-1.01,inactive
EFNA5,3,4.76,36.4,inactive
ZFP37,1,-0.767,-2.43,inactive
ZFP37,2,0.186,4.28,inactive
ZFP37,3,-0.467,-0.316,inactive
CCDC68,1,-0.757,-2.36,inactive
CCDC68,2,-0.955,-3.76,inactive
CCDC68,3,-0.716,-2.07,inactive
TGFBI,1,0.267,4.85,inactive
TGFBI,2,-0.246,1.23,inactive
TGFBI,3,0.106,3.71,inactive
DPY19L4,1,1.77,15.4,inactive
DPY19L4,2,-0.746,-2.28,inactive
DPY19L4,3,1.47,13.3,inactive
SLC5A8,1,0.503,6.51,inactive
SLC5A8,2,0.612,7.28,inactive
SLC5A8,3,2.66,21.7,inactive
DSP,1,-0.959,-3.78,inactive
DSP,2,-0.206,1.52,inactive
DSP,3,-0.076,2.43,inactive
RC3H2,1,-1.38,-6.72,inactive
RC3H2,2,2.63,21.4,inactive
RC3H2,3,3.4,26.9,inactive
PRR36,1,-1.18,-5.35,inactive
PRR36,2,-0.741,-2.24,inactive
PRR36,3,1.12,10.8,inactive
MRPS14,1,0.0537,3.35,inactive
MRPS14,2,-0.982,-3.94,inactive
MRPS14,3,0.473,6.3,inactive
UGT2B17,1,4.92,37.6,inactive
UGT2B17,2,4.21,32.6,inactive
UGT2B17,3,0.178,4.22,inactive

Sorted by “G2 robust z-score” (descending): 6 of the entries above
gene knocked down,siRNA no.,G2 robust z-score,"G2 cells, % of GMNN control",Call
TGFBI,1,0.267,4.85,inactive
ZFP37,2,0.186,4.28,inactive
ZFP37,3,-0.467,-0.316,inactive
CCDC68,3,-0.716,-2.07,inactive
CCDC68,1,-0.757,-2.36,inactive
CCDC68,2,-0.955,-3.76,inactive

Continued:
gene knocked down,siRNA no.,G2 robust z-score,"G2 cells, % of GMNN control",Call
CAMSAP1,1,1.02,10.1,inactive
CAMSAP1,2,-0.0867,2.36,inactive
CAMSAP1,3,0.145,3.99,inactive
C5orf15,1,-0.488,-0.469,inactive
C5orf15,2,1.76,15.3,inactive
C5orf15,3,-0.544,-0.86,inactive
SLC25A3,1,-0.699,-1.95,inactive
SLC25A3,2,2.56,21,inactive
SLC25A3,3,0.413,5.87,inactive
MITF,1,-1.22,-5.64,inactive
MITF,2,0.332,5.31,inactive
MITF,3,0.998,9.99,inactive
TTC4,1,2.05,17.4,inactive
TTC4,2,-0.442,-0.144,inactive
TTC4,3,1.93,16.5,inactive
CLUH,1,3.13,25,inactive
CLUH,2,0.381,5.65,inactive
CLUH,3,1.79,15.6,inactive
FSIP2,1,0.977,9.84,inactive
FSIP2,2,1.66,14.6,inactive
FSIP2,3,0.397,5.76,inactive
FSIP2,4,-0.791,-2.6,inactive
FSIP2,5,-0.538,-0.817,inactive
FSIP2,6,-0.382,0.281,inactive
RNPS1,1,-0.0368,2.71,inactive
RNPS1,2,0.872,9.11,inactive
RNPS1,3,-0.123,2.1,inactive
